This passage reports binding results from paper PMC3983030, “Ras GTPase-Like Protein MglA, a Controller of Bacterial Social-Motility in Myxobacteria, Has Evolved to Control Bacterial Predation by Bdellovibrio” (PLoS Genetics, 2014).

No constants are given. Whether binding was seen depends on the method and setting. In cells and extracts the contact can be indirect. A yes stands for co-enrichment or nearness to the bait. Other partners may have been found. Tags and fused reporters may be left off the sequences shown.

The assay addresses T1, MglABd with a C-terminal His8 tag (Bd3734) (Bdellovibrio bacteriovorus HD100) (UniProt Q6MH29).
T1 sequence: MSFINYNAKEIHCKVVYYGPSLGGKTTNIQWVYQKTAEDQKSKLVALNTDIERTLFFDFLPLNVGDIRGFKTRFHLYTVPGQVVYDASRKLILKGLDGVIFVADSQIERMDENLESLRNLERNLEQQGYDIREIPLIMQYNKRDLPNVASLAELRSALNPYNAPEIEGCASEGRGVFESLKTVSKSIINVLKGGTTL
In words: affinity purification with mass spectrometry; whole cell lysate of the HI MglABd-His8 strain; His-tagged bait bound to TALON-NX cobalt-charged resin; differential SDS-PAGE bands excised and analysed by LC-MS/MS; control HID13 without the His-tag.

B1: Bd2492, tetratricopeptide repeat (TPR) domain protein (TPRBd) (protein, UniProt Q6MKB3 1-353)
chain: MSTYIELEIQNLLNQGSDQNIDLAEVATRLVSSIESSPDHFTLDNITALSRFLIQSGNELVLVEFVLRHLENESFPIPWPYFLEALSAFSEELDEKSVRALIDGIEEDGAQEEASRSLALRQTIQSLGEWRSNRKYKIHKDYLNNKRLLLDQLITLRTQQLYEQEKSLLARLQKLYPGDSDIRREVNEHKQRYALEILSRRTPRSRGVKTEDFSPKDPETEQALQVLMQSMHEHAETDPSMAFDFAIAAYMLESYEDALSLLSFSDESETLIWFRLEVLLKCRRFVELLTDLAKVEVVFAHEPETFFATAYLRAQALWGLGQKHTAIEVMEGLLAARPHYRAASALLSIWGGQ
Turning to B1, the binding result is given as “binds”.
